According to the supplement of paper PMC4604168 (melanoma cell lines):
The other results are listed elsewhere or left out. Single values are uncertain, as repeats are few or missing.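 Imaging used 1,536-well plates; nuclei positive for cleaved PARP by antibody were divided by total DNA-stained nuclei to yield the apoptosis fraction. Doses for screening kept most cells viable, and cell lines differ markedly in resting and induced cleaved-PARP levels.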

Experiments:
Assay in all cases: cleaved PARP positive nuclei fraction relative to DMSO control; melanoma cells; higher = more apoptosis
Conditions in all cases: library dose: low library concentration; 72 h
501Mel = tested on: 501Mel
A101D = tested on: A101D
A2058 = tested on: A2058
A375 = tested on: A375
C32 = tested on: C32
CBRC008 = tested on: CBRC008 (line from a melanoma biopsy)
CBRC014 = tested on: CBRC014 (line from a melanoma biopsy)
CBRC016 = tested on: CBRC016 (line from a melanoma biopsy)
CBRC017 = tested on: CBRC017 (line from a melanoma biopsy)
CBRC034 = tested on: CBRC034 (line from a melanoma biopsy)
COLO792 = tested on: COLO792
COLO800 = tested on: COLO800
COLO829 = tested on: COLO829
G361 = tested on: G361
IPC-298 = tested on: IPC-298
IST-MEL1 = tested on: IST-MEL1
LB2518-MEL = tested on: LB2518-MEL
LOXIMVI = tested on: LOXIMVI
MEL-HO = tested on: MEL-HO

| Structure (SMILES) | cleaved PARP positive nuclei fraction (501Mel) [%] | cleaved PARP positive nuclei fraction (A101D) [%] | cleaved PARP positive nuclei fraction (A2058) [%] | cleaved PARP positive nuclei fraction (A375) [%] | cleaved PARP positive nuclei fraction (C32) [%] | cleaved PARP positive nuclei fraction (CBRC008) [%] | cleaved PARP positive nuclei fraction (CBRC014) [%] | cleaved PARP positive nuclei fraction (CBRC016) [%] | cleaved PARP positive nuclei fraction (CBRC017) [%] | cleaved PARP positive nuclei fraction (CBRC034) [%] | cleaved PARP positive nuclei fraction (COLO792) [%] | cleaved PARP positive nuclei fraction (COLO800) [%] | cleaved PARP positive nuclei fraction (COLO829) [%] | cleaved PARP positive nuclei fraction (G361) [%] | cleaved PARP positive nuclei fraction (IPC-298) [%] | cleaved PARP positive nuclei fraction (IST-MEL1) [%] | cleaved PARP positive nuclei fraction (LB2518-MEL) [%] | cleaved PARP positive nuclei fraction (LOXIMVI) [%] | cleaved PARP positive nuclei fraction (MEL-HO) [%] |
| --- | --- | --- | --- | --- | --- | --- | --- | --- | --- | --- | --- | --- | --- | --- | --- | --- | --- | --- | --- |
| C[C@@H](N)c1ccc(C(=O)Nc2ccnc3[nH]ccc23)cc1 + CCCS(=O)(=O)Nc1ccc(F)c(C(=O)c2c[nH]c3ncc(Cl)cc23)c1F [PLX4720] (first compound 0.4 µM, partner dose 0.08 µM) | 199 | 104 | 143 | 99 | 205 | 36.7 | 113 | 259 | 90.1 | 168 | 85.6 | 93.5 | 111 | 120 | 85 | 86 | 241 | 241 | 155 |
| NC1(c2ccc(-c3nc4ccn5c(=O)[nH]nc5c4cc3-c3ccccc3)cc2)CCC1 + C=CCNC1=C2C[C@@H](C)C[C@H](OC)[C@H](O)[C@@H](C)/C=C(\C)[C@H](OC(N)=O)[C@@H](OC)/C=C\C=C(/C)C(=O)NC(=CC1=O)C2=O [Tanespimycin] (first compound 0.4 µM, partner dose 0.002 µM) | 82.1 | 464 | 142 | 160 | 150 | 21.5 | 81.1 | 32 | 79.8 | 157 | 196 | 109 | 78.7 | 276 | 82 | 268 | 99.4 | 106 | 66.9 |
| CCCCCCCCc1ccc(CCC(N)(CO)CO)cc1 [fingolimod] + CN1CCN(c2ccc3nc(-c4c(N)c5c(F)cccc5[nH]c4=O)[nH]c3c2)CC1 [Dovitinib] (first compound 2 µM, partner dose 0.1 µM) | 1730 | 46.8 | 87.8 | 197 | 79.9 | 50.2 | 106 | 83 | 125 | 173 | 70.6 | 162 | 104 | 93.2 | 30.6 | 130 | 99.8 | 188 | 43.4 |
| CCCCCCCCc1ccc(CCC(N)(CO)CO)cc1 [fingolimod] + CC(C)CCN1c2nc(Nc3cc(F)c(O)c(F)c3)ncc2N(C)C(=O)C1C [BID1870] (first compound 2 µM, partner dose 0.2 µM) | 148 | 47.1 | 71.2 |  | 201 | 151 | 126 | 55.6 | 85.4 |  | 94.3 | 40.4 | 126 | 94.8 | 95.4 | 85 | 32 | 74.6 |  |
| NC(=O)c1ccc(N(C(N)=O)c2c(F)cccc2F)nc1-c1ccc(F)cc1F + Cc1cc(Nc2cc(N3CCN(C)CC3)nc(/C=C/c3ccccc3)n2)n[nH]1 [ENMD2076] (first compound 0.4 µM, partner dose 0.04 µM) | 86.3 | 39.5 | 143 | 133 | 71.8 | 19.3 | 81.7 | 170 | 97.7 | 40.5 | 95.6 | 91.4 | 40.8 | 50.8 | 85.6 | 165 | 107 | 66.2 | 101 |
| CS(=O)(=O)c1ccc(C(=O)Nc2ccc(Cl)c(-c3ccccn3)c2)c(Cl)c1 [vismodegib] + Nc1ncn([C@H]2C[C@H](O)[C@@H](CO)O2)c(=O)n1 [decitabine] (first compound 1 µM, partner dose 0.1 µM) | 83 | 188 | 57.1 | 100 | 143 | 162 | 98.4 | 148 | 86.3 | 125 | 77.8 | 83.2 | 101 | 95.2 | 258 | 207 | 128 | 38.3 | 99.7 |
| CCCCCCCCc1ccc(CCC(N)(CO)CO)cc1 [fingolimod] + Cn1nnc2c(C(N)=O)ncn2c1=O [temozolomide] (first compound 2 µM, partner dose 2 µM) | 121 | 51 | 107 | 380 | 45.6 | 66 | 111 | 32.1 | 102 | 67.6 | 58.4 | 162 | 76.3 | 88.3 | 87.8 | 42.4 | 48.1 | 283 | 107 |
| CN(c1ncccc1CNc1nc(Nc2ccc3c(c2)CC(=O)N3)ncc1C(F)(F)F)S(C)(=O)=O + Cn1nnc2c(C(N)=O)ncn2c1=O [temozolomide] (first compound 0.08 µM, partner dose 2 µM) | 133 | 94.7 | 138 | 87.4 | 90.3 | 101 | 124 | 92.9 | 91.1 | 81.5 | 137 | 60.6 | 124 | 80.6 | 136 | 285 | 123 | 176 | 211 |
| CS(=O)(=O)c1ccc(C(=O)Nc2ccc(Cl)c(-c3ccccn3)c2)c(Cl)c1 [vismodegib] + C=CCNC1=C2C[C@@H](C)C[C@H](OC)[C@H](O)[C@@H](C)/C=C(\C)[C@H](OC(N)=O)[C@@H](OC)/C=C\C=C(/C)C(=O)NC(=CC1=O)C2=O [Tanespimycin] (first compound 1 µM, partner dose 0.002 µM) | 47.5 | 43.8 | 133 | 110 | 43.2 | 122 | 100 | 54.7 | 124 | 137 | 107 | 186 | 129 | 24.2 | 31 | 102 | 23.9 | 93.4 | 16.6 |
| C[C@]1(O)C[C@@H](c2nc(-c3ccc4ccc(-c5ccccc5)nc4c3)c3c(N)nccn32)C1 + O=C(O)c1ccc2c(c1)nc(Nc1cccc(Cl)c1)c1ccncc12 [CX4945] (first compound 0.4 µM, partner dose 0.4 µM) | 96.3 | 131 | 150 | 982 | 71.1 | 136 | 157 | 34.4 | 161 | 67.2 | 85.1 | 194 | 40 | 89.1 | 273 | 108 | 429 | 53.8 | 64.1 |
| Cn1cnc2c(F)c(Nc3ccc(Br)cc3Cl)c(C(=O)NOCCO)cc21 [selumetinib] + Cn1nnc2c(C(N)=O)ncn2c1=O [temozolomide] (first compound 0.015 µM, partner dose 2 µM) | 645 | 99 | 81.2 | 198 | 84.4 | 118 | 85.1 | 156 | 107 | 222 | 113 | 115 | 70.3 | 192 | 70.8 | 139 | 133 | 94.7 | 122 |
| NC(=O)c1ccc(N(C(N)=O)c2c(F)cccc2F)nc1-c1ccc(F)cc1F + Nc1ncn([C@H]2C[C@H](O)[C@@H](CO)O2)c(=O)n1 [decitabine] (first compound 0.4 µM, partner dose 0.1 µM) | 87.3 | 93.5 | 106 | 73.5 | 73 | 173 | 87.3 | 112 | 105 | 29.6 | 137 | 75.4 | 109 | 110 | 78.7 | 150 | 62.6 | 57.1 | 213 |
| NC(=O)c1ccc(N(C(N)=O)c2c(F)cccc2F)nc1-c1ccc(F)cc1F + CC(=O)O[C@@]12CO[C@@H]1C[C@H](O)[C@@]1(C)C(=O)[C@H](O)C3=C(C)[C@@H](OC(=O)[C@H](O)[C@@H](NC(=O)OC(C)(C)C)c4ccccc4)C[C@@](O)([C@@H](OC(=O)c4ccccc4)[C@H]21)C3(C)C [Docetaxel] (first compound 0.4 µM, partner dose 0.0001 µM) | 115 | 119 | 2580 | 583 | 454 | 643 | 135 | 2150 | 286 | 108 | 450 | 97.1 | 190 | 614 | 168 | 290 | 370 | 121 | 140 |
| COc1ccc(C2=N[C@@H](c3ccc(Cl)cc3)[C@@H](c3ccc(Cl)cc3)N2C(=O)N2CCNC(=O)C2)c(OC(C)C)c1 [Nutlin-3] + CCCS(=O)(=O)Nc1ccc(F)c(C(=O)c2c[nH]c3ncc(Cl)cc23)c1F [PLX4720] (first compound 0.1 µM, partner dose 0.08 µM) | 64.3 | 173 | 98.4 | 349 |  | 66 | 123 | 175 | 104 | 58 | 119 | 65.2 | 44.8 | 166 | 84 | 331 | 193 | 40.8 | 61.2 |
| COc1ccc(C2=N[C@@H](c3ccc(Cl)cc3)[C@@H](c3ccc(Cl)cc3)N2C(=O)N2CCNC(=O)C2)c(OC(C)C)c1 [Nutlin-3] + CC(=O)O[C@@]12CO[C@@H]1C[C@H](O)[C@@]1(C)C(=O)[C@H](O)C3=C(C)[C@@H](OC(=O)[C@H](O)[C@@H](NC(=O)OC(C)(C)C)c4ccccc4)C[C@@](O)([C@@H](OC(=O)c4ccccc4)[C@H]21)C3(C)C [Docetaxel] (first compound 0.1 µM, partner dose 0.0001 µM) | 173 | 138 | 1780 | 1920 | 332 | 1430 | 162 | 413 | 162 | 61.9 | 483 | 169 | 178 | 473 | 122 | 193 | 278 | 88 | 40.5 |
| COc1ccc(C2=N[C@@H](c3ccc(Cl)cc3)[C@@H](c3ccc(Cl)cc3)N2C(=O)N2CCNC(=O)C2)c(OC(C)C)c1 [Nutlin-3] + Cc1nc(Nc2ncc(C(=O)Nc3c(C)cccc3Cl)s2)cc(N2CCN(CCO)CC2)n1 [dasatanib] (first compound 0.1 µM, partner dose 0.004 µM) | 162 | 188 | 55.8 | 130 | 147 | 44.5 | 101 | 79 | 156 | 308 | 84.4 | 172 | 176 | 88.8 | 366 | 52.4 | 131 | 110 | 92.2 |

Random excerpt: 2 entries already listed

| Structure (SMILES) | cleaved PARP positive nuclei fraction (501Mel) [%] | cleaved PARP positive nuclei fraction (A101D) [%] | cleaved PARP positive nuclei fraction (A2058) [%] | cleaved PARP positive nuclei fraction (A375) [%] | cleaved PARP positive nuclei fraction (C32) [%] | cleaved PARP positive nuclei fraction (CBRC008) [%] | cleaved PARP positive nuclei fraction (CBRC014) [%] | cleaved PARP positive nuclei fraction (CBRC016) [%] | cleaved PARP positive nuclei fraction (CBRC017) [%] | cleaved PARP positive nuclei fraction (CBRC034) [%] | cleaved PARP positive nuclei fraction (COLO792) [%] | cleaved PARP positive nuclei fraction (COLO800) [%] | cleaved PARP positive nuclei fraction (COLO829) [%] | cleaved PARP positive nuclei fraction (G361) [%] | cleaved PARP positive nuclei fraction (IPC-298) [%] | cleaved PARP positive nuclei fraction (IST-MEL1) [%] | cleaved PARP positive nuclei fraction (LB2518-MEL) [%] | cleaved PARP positive nuclei fraction (LOXIMVI) [%] | cleaved PARP positive nuclei fraction (MEL-HO) [%] |
| --- | --- | --- | --- | --- | --- | --- | --- | --- | --- | --- | --- | --- | --- | --- | --- | --- | --- | --- | --- |
| CN(c1ncccc1CNc1nc(Nc2ccc3c(c2)CC(=O)N3)ncc1C(F)(F)F)S(C)(=O)=O + Cn1nnc2c(C(N)=O)ncn2c1=O [temozolomide] (first compound 0.08 µM, partner dose 2 µM) | 133 | 94.7 | 138 | 87.4 | 90.3 | 101 | 124 | 92.9 | 91.1 | 81.5 | 137 | 60.6 | 124 | 80.6 | 136 | 285 | 123 | 176 | 211 |
| CCCCCCCCc1ccc(CCC(N)(CO)CO)cc1 [fingolimod] + CN1CCN(c2ccc3nc(-c4c(N)c5c(F)cccc5[nH]c4=O)[nH]c3c2)CC1 [Dovitinib] (first compound 2 µM, partner dose 0.1 µM) | 1730 | 46.8 | 87.8 | 197 | 79.9 | 50.2 | 106 | 83 | 125 | 173 | 70.6 | 162 | 104 | 93.2 | 30.6 | 130 | 99.8 | 188 | 43.4 |
